Measurements taken from patent US20250092124A1.
Where a chain is given by its changes, count along the chain named. These are yes or no findings as the source states them, for the method shown. Some results given as binding are weak or reduced against the parent protein; the word gives no strength. For some assays here: Tags and fused reporters may be left off the sequences shown.

Chains of the proteins cited; added tags and fusions are not shown. Lines headed by an entry give the natural chain unless they say otherwise; changes in a name come on top. Residues count along the entry.
UniProt Q9Z0J7: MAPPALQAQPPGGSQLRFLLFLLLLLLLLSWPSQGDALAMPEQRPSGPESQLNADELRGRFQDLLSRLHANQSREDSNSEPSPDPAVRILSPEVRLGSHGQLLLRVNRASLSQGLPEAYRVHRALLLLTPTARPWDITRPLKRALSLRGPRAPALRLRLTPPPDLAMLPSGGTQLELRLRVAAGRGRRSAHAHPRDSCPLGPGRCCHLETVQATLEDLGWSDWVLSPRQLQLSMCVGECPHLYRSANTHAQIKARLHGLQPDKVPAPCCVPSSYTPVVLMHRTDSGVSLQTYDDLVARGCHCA
UniProt Q99988, residues 197-308: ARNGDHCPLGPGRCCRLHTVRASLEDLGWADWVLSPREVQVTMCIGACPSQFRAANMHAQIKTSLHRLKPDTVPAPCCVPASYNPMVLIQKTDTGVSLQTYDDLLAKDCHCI

B1: 53E5(hz) (antibody, human IgG1, kappa, V domains shown)
VH: QVQLQESGPGLVKPSETLSLTCTFSGFSLSTSGMGVGWIRQPPGKGLEWLAHILWDDVKRYNPALKSRLTISKDSSKSQISLKLSSVTAADTAVYYCVQMAWDWFAYWGQGTTVTVSS
VL: DIQMTQSPSSLSASVGDRVTITCKASQNVDTNVAWYQQKPGQSPKALIYSASYRSSGVPSRFSGSGSGTDFTLTISSLQPEDFATYYCQQYHSYPTFGQGTRLEIKR
B2: 53A8(hz) (antibody, human IgG1, kappa, V domains shown)
VH: B1 VH with L54R, S75T, V98A
VL: B1 VL with N32D, S55Y, Q89H, H92N
B3: A5 (murine anti-50G3) (antibody, V domains shown)
VH: QVTLKESGPGILKPSQTLSLTCSFSGFSLSTSGMGVGWIRQPSGKGLEWLAHIWWNDDKYYNPSLKSHLTISKDTSRNQVFLMITSVDTADTATYYCARGAYDFFDYWGQGTTLTVSS
VL: DIVMTQAQNFMSTSVGDRVSVTCKASQNVDTNVAWYQQKPGQSPKALIYSASYRYSGVPDRFTGSGSGTDFTLTISNVQSDDLADYFCQQYNTYPYTFGGGTKLEIK
B4: A1 (murine anti-53E5) (antibody, V domains shown)
VH: QVQLKESGPGILQPSQTLSLTCSFSGFSLSTSGMGVGWIRQPSGKGLEWLAHILWDDVKRYNPALKSRLTISKDSSNSQIFLKIASVDTADTATYYCVQMAWDWFAYWGQGTLVTVSA
VL: DIVMTQAQKFMSTSVEDRVSVTCKASQNVDTNVAWYQQKPGQSPKALIYSASYRSSGVPDRFTGSGSGTDFTLTISNVQSEDLAEYFCQQYHSYPTFGGGTKLEIK
B5: A6 (murine anti-53D10) (antibody, V domains shown)
VH: QVTLKESGPGIVQPSQPFRLTCTFSGFSLSTSGIGITWIRQPSGKGLEWLATIWWDDDNRYNPSLKSRLTVSKDTSNNQAFLNIITVETADTAIYYCVQSAWDWFAYWGQGTLVTVSA
VL: DIVMTQSQKFMSTSVGDRVSVTCKASQNVGTNVAWYQQKSGQSPKALIYSASYRNSGVPDRFTGSGSGTDFTLTISNVESEDLAEYFCQQYNSHPVTFGGGTKLEIK
B6: A2 (murine anti-53A8) (antibody, V domains shown)
VH: B4 VH with L54R, S75T, N77S, V98A
VL: B4 VL with E16G, N32D, S55Y, S76T, Q89H, H92N
B7: A4 (murine anti-2A2) (antibody, V domains shown)
VH: QVTLKESGPGILQPSQTLSLTCSFSGFSLTTSGMGVDWIRQSSGKGLEWLAHIYWDDDKRYNPSLKSRLTISKDTSSNQVFLKITSVDTADTATYYCARRAWDAMDYWGQGTSFTVSS
VL: B3 VL with N9K, S26R, D30G, D81E, D85E, T93S
B8: A3 (murine anti-34G9) (antibody, V domains shown)
VH: QVQLKESGPGILQPSQTLSLTCSFSGFSLNTAGMTVGWIRQPSGKGLEWLAHIWWNDDKYYNPALKSRLTISKDTSNNQIFLEIASVVTADTATYYCTRIATMNYAMDYWGQGTSVTVSS
VL: DIVMTQAPASLAVSLGQRATISCRASQSVSTSSFSYMHWYQQKPGQPPKLLIKYASNLESGVPARFSGSGSGTDFTLNIHPVEEEDTATYYCQHSWEIPYTFGGGTKLEIK

Target: T1, cynoGDF15-mFC (monkey (cyno); mouse) (UniProt G7PWZ3+Q9Z0J7)
T1 sequence (looked up): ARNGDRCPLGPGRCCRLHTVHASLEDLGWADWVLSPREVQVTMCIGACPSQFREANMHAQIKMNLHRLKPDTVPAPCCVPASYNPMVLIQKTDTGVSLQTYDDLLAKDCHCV
Experiment: ELISA (figure legend)

binding, binds:
B1, B2

Target: T2, fusion protein comprising the extracellular region of human GDF15 protein and human IgG1-FC (human) (UniProt Q99988)
T2 sequence (looked up): T1 sequence (looked up) with R6H, H21R, E54A, M63T, N64S, V112I
Experiment: ELISA (figure legend)

binding, binds:
B3, B4, B5, B6, B7, B8

Target: T3, fusion protein comprising the extracellular region of monkey GDF15 protein and human IgG1-FC (monkey (cyno); human) (UniProt G7PWZ3)
T3 sequence (looked up): T1 sequence (looked up)
Experiment: ELISA (figure legend)

binding, binds:
B3, B4, B5, B6, B7, B8
